Values joined by “and” are separate entries in the source; they are usually repeats but may differ in a detail not shown here. Identical values can stand only once. The list shows a part of the results. For some of these results: Construct or isoform of the protein are uncertain.
Tests used:
Experiment in all cases: protein microarray (ProtoArray v5.0), streptavidin-Alexa Fluor 647
Settings in all cases: 3'-biotin; 20 mM Tris (pH 7.5), 5 mM MgCl2, 100 mM KCl, 0.1% Tween-20, A/T-rich and random oligonucleotide blockers; temperature not stated; high values mean tight binding
[1] = test system: MLX (human)
[2] = test system: MMP12 (human)
[3] = molecular target: T1, MOBKL1A (UniProt Q7L9L4)
T1 sequence: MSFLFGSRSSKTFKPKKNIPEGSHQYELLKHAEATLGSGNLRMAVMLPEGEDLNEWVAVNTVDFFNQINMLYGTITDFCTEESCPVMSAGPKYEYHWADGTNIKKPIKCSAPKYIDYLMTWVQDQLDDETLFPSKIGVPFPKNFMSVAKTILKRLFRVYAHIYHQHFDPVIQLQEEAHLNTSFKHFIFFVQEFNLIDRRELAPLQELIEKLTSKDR

[4] = test system: MOGAT3 (human)
[5] = molecular target: MORF4L1 (UniProt Q9UBU8)
[6] = test system: MPHOSPH6 (human)
[7] = test system: MR1 (human)
[8] = test system: MRPL43 (human)
[9] = test system: MRPS16 (human)
[10] = molecular target: MRPS6 (UniProt P82932)

## GGTGACAGGGGTATGGGGAGGGG [G4-2 biotinylated (Ct1)]
[1]
  binding signal: -0.401 z-score and -0.404 z-score
[2]
  binding signal: -0.386 z-score
[3]
  binding signal: -0.382 z-score
[4]
  binding signal: -0.401 z-score
[5]
  binding signal: 3.09 z-score
[6]
  binding signal: -0.371 z-score
[7]
  binding signal: -0.372 z-score
[8]
  binding signal: -0.363 z-score
[9]
  binding signal: -0.373 z-score
[10]
  binding signal: 5.37 z-score
